Some of the results follow. Only a few entries rise above the background.
Tests used:
Experiment in all cases: fluorescence intensity of antibody binding to polysaccharide-coupled beads; higher = stronger binding
[1] = biological target: pneumococcal polysaccharide Pn22A
[2] = biological target: pneumococcal polysaccharide Pn22F
[3] = biological target: pneumococcal polysaccharide Pn23A
[4] = biological target: pneumococcal polysaccharide Pn23B
[5] = biological target: pneumococcal polysaccharide Pn23F
[6] = biological target: pneumococcal polysaccharide Pn24A
[7] = biological target: pneumococcal polysaccharide Pn24B
[8] = biological target: pneumococcal polysaccharide Pn24F
[9] = biological target: pneumococcal polysaccharide Pn25A
[10] = biological target: pneumococcal polysaccharide Pn25F
[11] = biological target: pneumococcal polysaccharide Pn27
[12] = biological target: pneumococcal polysaccharide Pn28A
[13] = antibody concentration 81.7561 ng/mL
[14] = antibody concentration 437.17 ng/mL
[15] = antibody concentration 2337.65 ng/mL
[16] = antibody concentration 12500 ng/mL
[17] = antibody concentration 0.1 ng/mL
[18] = antibody concentration 0.534724 ng/mL
[19] = antibody concentration 2.8593 ng/mL
[20] = antibody concentration 15.2894 ng/mL

B1: 4-127.4 (protein)
chain 1: QVQLQESGPGLVKPSETLSLTCGVSGYSISSGHGWSWIRQPPGKGLEWIGYVGGSSGNTNYNPSLKSRVTISKDTSKNQISLKLSSVTAADTAVYYCARRGISGTFGLVDYWGQGVLVTVSS
chain 2: QSVLTQPPSVSGAPGQRVTISCTGSSSNIGGYYVQWYQQLPGSAPKLLIYDNDQRPSGVSDRISGSRSGTSASLTITGLQSEDEADYYCQSFDSFLRGVLFGGGTRLTVL
B1 was tested, and the fluorescence intensity [1, 13] was 22 MFI, the fluorescence intensity [1, 14] was 23.8 MFI and the fluorescence intensity [1, 15] was 22 MFI. For the same binder, the fluorescence intensity [1, 16] was 32.5 MFI, the fluorescence intensity [2, 17] was 29.2 MFI and the fluorescence intensity [2, 18] was 32.2 MFI. It also gave a fluorescence intensity [2, 19] of 33 MFI, a fluorescence intensity [2, 20] of 32.2 MFI and a fluorescence intensity [2, 13] of 30.8 MFI. It also gave a fluorescence intensity [2, 14] of 33 MFI, a fluorescence intensity [2, 15] of 32.2 MFI and a fluorescence intensity [2, 16] of 40.2 MFI. For the same binder, the fluorescence intensity [3, 17] was 24.5 MFI, the fluorescence intensity [3, 18] was 26 MFI and the fluorescence intensity [3, 19] was 28.2 MFI. The fluorescence intensity [3, 20] was 27 MFI, the fluorescence intensity [3, 13] was 28.8 MFI and the fluorescence intensity [3, 14] was 29.5 MFI. For the same binder, the fluorescence intensity [3, 15] was 36 MFI, the fluorescence intensity [3, 16] was 52.5 MFI and the fluorescence intensity [4, 17] was 29.8 MFI. For the same binder, the fluorescence intensity [4, 18] was 32.5 MFI, the fluorescence intensity [4, 19] was 30 MFI and the fluorescence intensity [4, 20] was 29.8 MFI. It also gave a fluorescence intensity [4, 13] of 31.5 MFI, a fluorescence intensity [4, 14] of 30.2 MFI and a fluorescence intensity [4, 15] of 31 MFI. The fluorescence intensity [4, 16] was 36.5 MFI, the fluorescence intensity [5, 17] was 18.8 MFI and the fluorescence intensity [5, 18] was 20 MFI. The fluorescence intensity [5, 19] was 18 MFI, the fluorescence intensity [5, 20] was 18.5 MFI and the fluorescence intensity [5, 13] was 20 MFI. It also gave a fluorescence intensity [5, 14] of 18.5 MFI, a fluorescence intensity [5, 15] of 22.8 MFI and a fluorescence intensity [5, 16] of 27.2 MFI. It also gave a fluorescence intensity [6, 17] of 15 MFI, a fluorescence intensity [6, 18] of 16 MFI and a fluorescence intensity [6, 19] of 15.5 MFI. It also gave a fluorescence intensity [6, 20] of 16.5 MFI, a fluorescence intensity [6, 13] of 16 MFI and a fluorescence intensity [6, 14] of 15.5 MFI. It also gave a fluorescence intensity [6, 15] of 17.5 MFI, a fluorescence intensity [6, 16] of 19.5 MFI and a fluorescence intensity [7, 17] of 20 MFI. It also gave a fluorescence intensity [7, 18] of 17 MFI, a fluorescence intensity [7, 19] of 18 MFI and a fluorescence intensity [7, 20] of 17.8 MFI. For the same binder, the fluorescence intensity [7, 13] was 18.5 MFI, the fluorescence intensity [7, 14] was 18.2 MFI and the fluorescence intensity [7, 15] was 21.5 MFI. It also gave a fluorescence intensity [7, 16] of 32.2 MFI, a fluorescence intensity [8, 17] of 14.5 MFI and a fluorescence intensity [8, 18] of 15.5 MFI. It also gave a fluorescence intensity [8, 19] of 18.8 MFI, a fluorescence intensity [8, 20] of 18 MFI and a fluorescence intensity [8, 13] of 16 MFI. For the same binder, the fluorescence intensity [8, 14] was 19.5 MFI, the fluorescence intensity [8, 15] was 23 MFI and the fluorescence intensity [8, 16] was 31.2 MFI. The fluorescence intensity [9, 17] was 23.2 MFI, the fluorescence intensity [9, 18] was 25.5 MFI and the fluorescence intensity [9, 19] was 24 MFI. The fluorescence intensity [9, 20] was 23.2 MFI, the fluorescence intensity [9, 13] was 25 MFI and the fluorescence intensity [9, 14] was 24.5 MFI. It also gave a fluorescence intensity [9, 15] of 28 MFI, a fluorescence intensity [9, 16] of 33.5 MFI and a fluorescence intensity [10, 17] of 30.8 MFI. It also gave a fluorescence intensity [10, 18] of 32.5 MFI, a fluorescence intensity [10, 19] of 29.5 MFI and a fluorescence intensity [10, 20] of 31.5 MFI. It also gave a fluorescence intensity [10, 13] of 32.5 MFI, a fluorescence intensity [10, 14] of 32 MFI and a fluorescence intensity [10, 15] of 32.8 MFI. The fluorescence intensity [10, 16] was 37 MFI, the fluorescence intensity [11, 17] was 16 MFI and the fluorescence intensity [11, 18] was 16.5 MFI. The fluorescence intensity [11, 19] was 16.5 MFI, the fluorescence intensity [11, 20] was 15.5 MFI and the fluorescence intensity [11, 13] was 17.5 MFI. It also gave a fluorescence intensity [11, 14] of 19.2 MFI, a fluorescence intensity [11, 15] of 24 MFI and a fluorescence intensity [11, 16] of 60.2 MFI. For the same binder, the fluorescence intensity [12, 17] was 27.8 MFI, the fluorescence intensity [12, 18] was 25.8 MFI and the fluorescence intensity [12, 19] was 27.5 MFI. For the same binder, the fluorescence intensity [12, 20] was 27 MFI, the fluorescence intensity [12, 13] was 26.5 MFI and the fluorescence intensity [12, 14] was 27 MFI.

Source: the supplement of paper PMC11438910
